PubChem BioAssay AID1259254, NCATS – 2017

- Aim: 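Finding genes that stop cells copying their DNA twice in one cycle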 (primary screen)
- System: human HCT116 colorectal cancer cells
- Knock-down reagent: single siRNA against human genes
- Duration: 3 days
- Read-out: 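Imaged Hoechst DNA stain sorts each cell into a cycle phase by DNA amount; per plate, G2 fraction set to 0% for non-targeting and 100% for GMNN siRNA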
- Reading the numbers: G2 robust z-score and G2 cells, % of GMNN control: higher = more G2 cells, more excess DNA replication
- Rule for the call: 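An siRNA counts as active if its G2 robust z-score lies at least 5 MADs above the screen median; here such calls match roughly 38% of GMNN control or more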
Shown is one part, drawn at random, of about 59,000 reagents tested. Over the whole deposit, about 1,550 (2.6%) are marked active. 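G2 share is only a proxy for re-replication; each gene was hit by three separate siRNAs, and active genes were retested.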 The numbers tell different reagents against one gene apart. Further read-outs or replicates are left out here. Not stated in the record: the amount of reagent.

With ARPC1B (actin related protein 2/3 complex subunit 1B) #1, how do the results read?
G2 robust z-score: -0.697; G2 cells, % of GMNN control: -1.94; call: inactive

What is on record for ARPC1B (actin related protein 2/3 complex subunit 1B) #2?
G2 robust z-score: -0.689; G2 cells, % of GMNN control: -1.88; call: inactive

For ARPC1B (actin related protein 2/3 complex subunit 1B) #3, what does the deposit list?
G2 robust z-score: 0.131; G2 cells, % of GMNN control: 3.89; call: inactive

What is on record for PDSS1 (decaprenyl diphosphate synthase subunit 1) #1?
G2 robust z-score: 0.22; G2 cells, % of GMNN control: 4.52; call: inactive

For PDSS1 (decaprenyl diphosphate synthase subunit 1) #2, what was measured?
G2 robust z-score: -0.405; G2 cells, % of GMNN control: 0.117; call: inactive

How did the screen score PDSS1 (decaprenyl diphosphate synthase subunit 1) #3?
G2 robust z-score: -0.699; G2 cells, % of GMNN control: -1.95; call: inactive

What did the screen give for BOLL (boule RNA binding protein) #1?
G2 robust z-score: 0.826; G2 cells, % of GMNN control: 8.78; call: inactive

For BOLL (boule RNA binding protein) #2, how do the results read?
G2 robust z-score: -0.796; G2 cells, % of GMNN control: -2.63; call: inactive

How did the screen score BOLL (boule RNA binding protein) #3?
G2 robust z-score: 0.168; G2 cells, % of GMNN control: 4.15; call: inactive

For IFNA5 (interferon alpha 5) #1, what does the deposit list?
G2 robust z-score: -0.725; G2 cells, % of GMNN control: -2.13; call: inactive

For IFNA5 (interferon alpha 5) #2, how do the results read?
G2 robust z-score: -0.0825; G2 cells, % of GMNN control: 2.39; call: inactive

For IFNA5 (interferon alpha 5) #3, how do the results read?
G2 robust z-score: 0.491; G2 cells, % of GMNN control: 6.42; call: inactive

With AP5S1 (adaptor related protein complex 5 subunit sigma 1) #1, how do the results read?
G2 robust z-score: 0.556; G2 cells, % of GMNN control: 6.88; call: inactive

For AP5S1 (adaptor related protein complex 5 subunit sigma 1) #2, what was measured?
G2 robust z-score: -0.0275; G2 cells, % of GMNN control: 2.77; call: inactive

How did the screen score AP5S1 (adaptor related protein complex 5 subunit sigma 1) #3?
G2 robust z-score: 4.79; G2 cells, % of GMNN control: 36.7; call: inactive

With STK17B (serine/threonine kinase 17b) #1, how do the results read?
G2 robust z-score: 0.67; G2 cells, % of GMNN control: 7.68; call: inactive

With STK17B (serine/threonine kinase 17b) #2, what was measured?
G2 robust z-score: 0.167; G2 cells, % of GMNN control: 4.14; call: inactive

What is on record for STK17B (serine/threonine kinase 17b) #3?
G2 robust z-score: -0.129; G2 cells, % of GMNN control: 2.06; call: inactive

For CPNE3 (copine 3) #1, what does the deposit list?
G2 robust z-score: -1.71; G2 cells, % of GMNN control: -9.07; call: inactive

What is on record for CPNE3 (copine 3) #2?
G2 robust z-score: -0.91; G2 cells, % of GMNN control: -3.44; call: inactive

What did the screen give for CPNE3 (copine 3) #3?
G2 robust z-score: -0.554; G2 cells, % of GMNN control: -0.933; call: inactive

With NME1 (NME/NM23 nucleoside diphosphate kinase 1) #1, what was measured?
G2 robust z-score: -0.457; G2 cells, % of GMNN control: -0.247; call: inactive

For NME1 (NME/NM23 nucleoside diphosphate kinase 1) #2, how do the results read?
G2 robust z-score: 5.81; G2 cells, % of GMNN control: 43.8; call: active

With NME1 (NME/NM23 nucleoside diphosphate kinase 1) #3, what was measured?
G2 robust z-score: -0.715; G2 cells, % of GMNN control: -2.06; call: inactive

How did the screen score LOC441052 #1?
G2 robust z-score: -0.59; G2 cells, % of GMNN control: -1.18; call: inactive

For LOC441052 #2, what does the deposit list?
G2 robust z-score: -0.235; G2 cells, % of GMNN control: 1.31; call: inactive

With LOC441052 #3, how do the results read?
G2 robust z-score: -0.291; G2 cells, % of GMNN control: 0.918; call: inactive

How did the screen score SYTL3 (synaptotagmin like 3) #1?
G2 robust z-score: 2.12; G2 cells, % of GMNN control: 17.9; call: inactive

How did the screen score SYTL3 (synaptotagmin like 3) #2?
G2 robust z-score: -0.679; G2 cells, % of GMNN control: -1.81; call: inactive

Which result is listed for SYTL3 (synaptotagmin like 3) #3?
G2 robust z-score: 0.926; G2 cells, % of GMNN control: 9.48; call: inactive
